The text below walks through data of article PMC11335299.

These are yes or no findings as the source states them, for the method shown. In cells and extracts the contact can be indirect. Binding can be weak; no strength is given.

The target in this assay is Scramb1-A-V5 (Drosophila). In words: co-IP; lysate of salivary glands coexpressing both proteins; Dynabeads Protein G coupled to mouse anti-V5 (control: anti-β-galactosidase), 30 min at room temperature; 150 mM NaCl, 20 mM Tris-HCl pH 7.5, 0.5% Triton X-100, 1 mM DTT; western blot of eluates.

B1: Flo2-RFP (protein, UniProt O61492 1-438)
chain: MGNIHTTGPNEALIVSGGCCGSTKKRTIVGGWAWAWWLVTDVQRLSLNVMTLNPMCENVETSQGVPLTVTGVAQCKIMKSSSYKQTDYHNDEADELLGTASEQFLGKSVKEIKQTILQTLEGHLRAILGTLTVEEVYKDRDQFAALVREVAAPDVGRMGIEILSFTIKDVYDDVQYLASLGKAQTAVVKRDADAGVAEANRDAGIREAECEKSAMDVKYSTDTKIEDNTRMYKLQKANFDQEINTAKAESQLAYELQAAKIRQRIRNEEIQIEVVERRKQIEIESQEVQRKDRELTGTVKLPAEAEAFRLQTLAQAKQCQTIEGARAEAERIRKIGSAEAHAIELVGKAEAERMRMKAHVYKQYGDAAIMNIVLESLPKIAAEVAAPLAKTDEIVLIGGNDNITNDVTRLVAQLPPSINALTGVDLSKVLSKIPGAKA
With B1, the binding entry is on record as “binds”.
